In PubChem BioAssay AID330 (DTP/NCI, 2004):
The list shows only some results of the screen, not a fair sample: it gathers tests that were run many times, whatever their T/C, doses with no T/C, and many T/C values between a quarter and a half above the control. Other doses and runs of a compound stand elsewhere. T/C: endpoint of the treated group in % of that of the vehicle group. Some doses have a count of surviving animals in place of a T/C: the source holds a T/C of zero for them, seemingly a mark for toxic or unscored doses. Some doses without a T/C left all or most animals alive at the check, yet need not have been tolerated: the source hardly ever lists a survival T/C far under the control, and the zero likely stands for such cases as well. Counts of survivors are from the toxicity check (mostly the fifth day) where no day follows; animals may have died later. Schedule codes are those of the source, read here as Q, the interval in days (D) or hours (H), X, the number of doses. Some entries hold several experiments; their values stand side by side, smallest first. For survival time, the PubChem record calls one and a half times the control and up active, and a quarter to a half above the control has no call in these data; cut-offs in other NCI protocols can differ.

Test system: P388 leukemia ip, CD2F1 mice, survival T/C
Assay: NCI In Vivo Anticancer Drug Screen. Data for tumor model P388 Leukemia (intraperitoneal) in CD2F1 (CDF1) mice
Settings: T/C endpoint: median survival time, higher T/C = longer survival
[1] = dose: 200.0 mg/kg/injection, schedule: Q01DX009 (ip), vehicle: Klucel (hydroxypropylcellulose) (HPC)
[2] = dose: 200.0 mg/kg/injection, schedule: Q01DX009 (ip), vehicle: saline
[3] = dose: 200.0 mg/kg/injection, schedule: Q01DX005 (ip), vehicle: Klucel (hydroxypropylcellulose) (HPC)
[4] = dose: 100.0 mg/kg/injection, schedule: Q01DX009 (ip), vehicle: saline
[5] = dose: 600.0 mg/kg/injection, schedule: Q01DX009 (ip), vehicle: saline
[6] = dose: 100.0 mg/kg/injection, schedule: Q01DX005 (ip), vehicle: saline with Tween-80
[7] = dose: 200.0 mg/kg/injection, schedule: Q01DX005 (ip), vehicle: saline with Tween-80
[8] = dose: 7.5 mg/kg/injection, schedule: Q01DX005 (ip), vehicle: Klucel (hydroxypropylcellulose) (HPC)

COc1ccc(C=C2C(=O)C=CC2=O)cc1OC
survivor count (dose: 25.0 mg/kg/injection, schedule: Q04DX002 (ip), vehicle: saline with Tween-80): 0 of 6
survivor count (dose: 50.0 mg/kg/injection, schedule: Q04DX002 (ip), vehicle: saline with Tween-80): 0 of 6
survivor count (dose: 100.0 mg/kg/injection, schedule: Q04DX002 (ip), vehicle: saline with Tween-80): 0 of 6

O=c1[nH]nnc2ccccc12
survivor count [1]: 0 of 6
survivor count (dose: 400.0 mg/kg/injection, schedule: Q01DX009 (ip), vehicle: Klucel (hydroxypropylcellulose) (HPC)): 0 of 6

COc1cc2c(cc1OC)C1=[N+](CCC1)CC2
survivor count (dose: 120.0 mg/kg/injection, schedule: Q01DX005 (ip), vehicle: saline): 3 of 6
survivor count (dose: 240.0 mg/kg/injection, schedule: Q01DX005 (ip), vehicle: saline): 0 of 6

CCCNC(=S)NN1C2CSC1CS2
survivor count [2]: 6 of 6

COc1cc(C(O)(CCN2CCOCC2)c2ccc3c(c2)OCO3)cc(OC)c1OC (stereo not drawn)
survivor count [3]: 6 of 6

CNCCc1ccc(O)c(O)c1
survivor count [4]: 4 of 6
survivor count [2]: 4 of 6
survivor count (dose: 400.0 mg/kg/injection, schedule: Q01DX009 (ip), vehicle: saline): 5 of 6
T/C [5]: 126 % of control
survivor count [5]: 1 of 6 and 2 of 6

CCOC(=O)N(C)C(C)=O
survivor count (dose: 50.0 mg/kg/injection, schedule: Q01DX009 (ip), vehicle: saline): 6 of 6
survivor count [4]: 5 of 6
survivor count (dose: 200.0 mg/kg/injection, schedule: Q01DX009 (ip), vehicle: saline with Tween-80): 6 of 6

C=C(C)C12CC(COC(=O)c3ccccc3)C34OC5(OC1C3C1OC1(CO)C(O)C1(O)C(OC(=O)c3ccccc3)C(C)C(C(C)CCCCCCC5O)C14)O2 (stereo not drawn)
T/C (dose: 6.3 micrograms/kg/injection, schedule: Q01DX009 (ip), vehicle: saline with Tween-80): 147 % of control
T/C (dose: 6.3 micrograms/kg/injection, schedule: Q01DX009 (ip), vehicle: saline): 127 and 128 % of control
T/C (dose: 12.5 micrograms/kg/injection, schedule: Q01DX009 (ip), vehicle: saline): 130 and 138 % of control
T/C (dose: 25.0 micrograms/kg/injection, schedule: Q01DX009 (ip), vehicle: saline): 140 % of control

C#CC1(O)CC(c2ccccc2)N(C)C(c2ccccc2)C1 (stereo not drawn)
survivor count [6]: 0 of 6
survivor count [7]: 0 of 6

COc1ccc2nc(N(C)C)cc(N(C)C)c2c1
survivor count (dose: 50.0 mg/kg/injection, schedule: Q01DX009 (ip), vehicle: Klucel (hydroxypropylcellulose) (HPC)): 5 of 6
survivor count (dose: 100.0 mg/kg/injection, schedule: Q01DX009 (ip), vehicle: Klucel (hydroxypropylcellulose) (HPC)): 0 of 6
survivor count [1]: 0 of 6

O=S(=O)(O)CC[S][Sn]([S]CCS(=O)(=O)O)([c]1ccccc1)[c]1ccccc1 (tested in a mixture with another compound)
T/C (dose: 0.93 mg/kg/injection, schedule: Q01DX005 (ip), vehicle: Klucel (hydroxypropylcellulose) (HPC)): 134 % of control
T/C (dose: 3.75 mg/kg/injection, schedule: Q01DX005 (ip), vehicle: Klucel (hydroxypropylcellulose) (HPC)): 137 % of control
T/C [8]: 137 % of control
survivor count [8]: 3 of 6
survivor count (dose: 15.0 mg/kg/injection, schedule: Q01DX005 (ip), vehicle: Klucel (hydroxypropylcellulose) (HPC)): 1 of 6
survivor count (dose: 60.0 mg/kg/injection, schedule: Q01DX005 (ip), vehicle: Klucel (hydroxypropylcellulose) (HPC)): 0 of 6
survivor count (dose: 120.0 mg/kg/injection, schedule: Q01DX005 (ip), vehicle: Klucel (hydroxypropylcellulose) (HPC)): 0 of 6
survivor count (dose: 240.0 mg/kg/injection, schedule: Q01DX005 (ip), vehicle: Klucel (hydroxypropylcellulose) (HPC)): 0 of 6

COc1cc(O)c(CC=C(C)C)cc1O
survivor count [3]: 1 of 5

[B-][N+](C)(C)C
survivor count [7]: 0 of 5

CC[N+](CC)=c1cc2oc3cc(N(C)C)ccc3nc-2cc1C
survivor count [6]: 0 of 5
survivor count [7]: 0 of 5
